No constants are given. Whether binding was seen depends on the method and setting. In cells and extracts the contact can be indirect. Some results given as binding are weak or reduced against the parent protein; the word gives no strength. Where a sequence is shown, tags or fusion partners need not be part of it.
Molecular target: T1, MLKL fused C-terminally to the double Strep-tag, inducibly expressed in MLKL KO HT-29 cells (human) (UniProt Q8NB16)
T1 sequence: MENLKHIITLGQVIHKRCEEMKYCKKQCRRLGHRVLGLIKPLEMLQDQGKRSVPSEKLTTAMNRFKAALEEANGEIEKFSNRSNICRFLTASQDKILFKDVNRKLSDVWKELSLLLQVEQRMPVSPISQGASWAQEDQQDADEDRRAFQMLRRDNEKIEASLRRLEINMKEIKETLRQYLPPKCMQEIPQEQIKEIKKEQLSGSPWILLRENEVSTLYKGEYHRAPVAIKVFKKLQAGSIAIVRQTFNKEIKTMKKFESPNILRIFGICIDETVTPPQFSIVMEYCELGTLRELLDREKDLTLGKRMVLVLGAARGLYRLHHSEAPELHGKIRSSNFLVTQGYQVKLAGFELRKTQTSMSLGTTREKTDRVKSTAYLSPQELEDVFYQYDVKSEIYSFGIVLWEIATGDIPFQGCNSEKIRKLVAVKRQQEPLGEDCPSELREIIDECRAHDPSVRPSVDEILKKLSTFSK
Assay: pull-down; MLKL KO HT-29 cells inducibly expressing MLKL with C-terminal double Strep-tag, TBZ treatment, with or without expression of ITCH; extraction in a buffer containing 1% Brij; western blot

B1: MVB12B, in HT-29 cells (protein, UniProt Q9H7P6 1-319)
chain: MRSCFCVRRSRDPPPPQPPPPPPQRGTDQSTMPEVKDLSEALPETSMDPITGVGVVASRNRAPTGYDVVAQTADGVDADLWKDGLFKSKVTRYLCFTRSFSKENSHLGNVLVDMKLIDIKDTLPVGFIPIQETVDTQEVAFRKKRLCIKFIPRDSTEAAICDIRIMGRTKQAPPQYTFIGELNSMGIWYRMGRVPRNHDSSQPTTPSQSSAASTPAPNLPRHISLTLPATFRGRNSTRTDYEYQHSNLYAISAMDGVPFMISEKFSCVPESMQPFDLLGITIKSLAEIEKEYEYSFRTEQSAAARLPPSPTRCQQIPQS
Q: With B1 as the binder, how does the binding read?
A: Its binding is “binds”.

Reference: publication PMC8816944
